Data from publication doi:10.1101/2025.11.11.685192 (bioRxiv, 2025).
Results are given in words; binding and its absence hold for the method and conditions named. Some binding calls cover weakened binding; strength is not graded here.

Target: full-length gp130 S187-Y190 deletion mutant (gp130 ΔSY full-length) (human) (UniProt P40189)
Assay: cryo-EM structure

B1: full-length gp130 S187-Y190 deletion mutant (gp130 ΔSY full-length) (receptor, human, UniProt P40189 23-918, looked up)
chain: ELLDPCGYISPESPVVQLHSNFTAVCVLKEKCMDYFHVNANYIVWKTNHFTIPKEQYTIINRTASSVTFTDIASLNIQLTCNILTFGQLEQNVYGITIISGLPPEKPKNLSCIVNEGKKMRCEWDGGRETHLETNFTLKSEWATHKFADCKAKRDTPTSCTVDYFVNIEVWVEAENALGKVTSDHINFDPVYKVKPNPPHNLSVINSEELSSILKLTWTNPSIKSVIILKYNIQYRTKDASTWSQIPPEDTASTRSSFTVQDLKPFTEYVFRIRCMKEDGKGYWSDWSEEASGITYEDRPSKAPSFWYKIDPSHTQGYRTVQLVWKTLPPFEANGKILDYEVTLTRWKSHLQNYTVNATKLTVNLTNDRYLATLTVRNLVGKSDAAVLTIPACDFQATHPVMDLKAFPKDNMLWVEWTTPRESVKKYILEWCVLSDKAPCITDWQQEDGTVHRTYLRGNLAESKCYLITVTPVYADGPGSPESIKAYLKQAPPSKGPTVRTKKVGKNEAVLEWDQLPVDVQNGFIRNYTIFYRTIIGNETAVNVDSSHTEYTLSSLTSDTLYMVRMAAYTDEGGKDGPEFTFTTPKFAQGEIEAIVVPVCLAFLLTTLLGVLFCFNKRDLIKKHIWPNVPDPSKSHIAQWSPHTPPRHNFNSKDQMYSDGNFTDVSVVEIEANDKKPFPEDLKSLDLFKKEKINTEGHSSGIGGSSCMSSSRPSISSSDENESSQNTSSTVQYSTVVHSGYRHQVPSVQVFSRSESTQPLLDSEERPEDLQLVDHVDGGDGILPRQQYFKQNCSQHESSPDISHFERSKQVSSVNEEDFVRLKQQISDHISQSCGSGQMKMFQEVSAADAFGPGTEGQVERFETVGMEAATDEGMPKSYLPQTVRQGGYMPQ
In the case of B1, the binding is reported as “binds weakly”.
